From PubChem BioAssay AID2685 (National Center for Advancing Translational Sciences (NCATS), 2010)
The other results are listed elsewhere or left out. These are further read-outs of the screen, such as a control signal, another cell line or another target. No call is given for them. Compounds called inactive in the main read-out are mostly missing here. The note in brackets gives the kind of curve behind each potency; many fits are weak.

Assay: qHTS Assay for Lipid Storage Modulators in Drosophila S3 Cells;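 as to cell number change: cells counted by Cell Tracker Red CMTPX staining in the red channel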
Details: BODIPY lipid droplet fluorescence, 18-24 h; for cell number change: measured here: cell count max response, cells fed with added oleic acid
How it was run: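 Drosophila S3 cells got compounds at several concentrations plus oleic acid (400 uM solution). Laser-scanning cytometry with 488 nm excitation read lipid droplets at 500-530 nm and cells at 575-640 nm. Percent activity was relative to 20 uM Triacsin C.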

[1] = measured here: lipid fluorescence (Fed channel) AC50, cells fed with added oleic acid
[2] = measured here: cell number channel AC50, cells fed with added oleic acid

Row | Compound | cell number change | AC50 [1] | AC50 [2]
1 | CC(C)c1ccc(C2(C)NC(=O)N(CC(=O)N3CCN(C(=O)c4cccs4)CC3)C2=O)cc1 (configuration not stated) | -18.6% | 6.51 µM [falling, single point] | –
2 | CCOC(=O)c1ccccc1NC(=O)Cn1cnc2c(cnn2-c2ccccc2)c1=O | 10.2% | – | 1.03 µM [rising, full curve]
3 | Cc1cccc(C(=O)OCC(=O)NC(=O)NCc2ccccc2)c1 | -37.4% | 1.3 µM [falling, full curve] | 0.184 µM [falling, full curve]
4 | COc1cccc(/C=N/NC(=O)CCn2c3ccccc3c3ccccc32)c1 | -19.9% | 20.6 µM [falling, single point] | –
5 | S=C(/N=c1/sccn1Cc1ccccc1)NC1CC1 | – | 18.4 µM [falling, single point] | –
6 | CN(C)/C=N/c1nc2ccc3c(c2s1)CCCC3 | 11.5% | 0.517 µM [rising, single point] | –
7 | COc1ccc(/C=C/C(=O)OCC(=O)N2CCCC2)c(OC)c1 | -2.89% | 3.66 µM [falling, single point] | 5.17 µM [falling, single point]
8 | O=C(CSc1nnc(-c2ccccc2O)o1)N1CCCCC1 | 16.2% | – | 0.116 µM [rising, full curve, poor fit]
9 | COc1cc(OC)cc(C(=O)OCC(=O)NCc2ccco2)c1 | -29.9% | 0.259 µM [falling, full curve, poor fit] | 1.46 µM [falling, full curve, poor fit]
10 | Cc1ccc(NC(=O)CCC(=O)NNC(=O)NC23CC4CC(CC(C4)C2)C3)cc1C | -24.5% | 29.1 µM [falling, single point] | –
11 | CC1CC(C)(C)NC(=S)N1CCC(=O)NCc1ccc(Cl)cc1 (configuration not stated) | 19.4% | – | –
12 | Cc1ccc(S(=O)(=O)N2CCN(C(=O)CN3C(=O)NC4(CCCC4)C3=O)CC2)c(C)c1 | -32.2% | 3.26 µM [falling, full curve] | 3.26 µM [falling, full curve]
13 | NC(=O)c1ccccc1NC(=O)CCN1C(=O)c2ccccc2C1=O | 0.766% | – | –
14 | Cn1c(C(O)c2ccccc2)nc(Cl)c1Cl (configuration not stated) | -18.7% | 0.164 µM [falling, full curve, poor fit] | 4.61 µM [falling, single point]
15 | O=C(COC(=O)c1ccc(Br)c(S(=O)(=O)N2CCOCC2)c1)NCC1CCCO1 (configuration not stated) | – | 2.91 µM [falling, full curve] | –
16 | O=C(CSc1nc(=O)n(CCCN2CCOCC2)c2c1CCCC2)Nc1cccc([N+](=O)[O-])c1 | 50% | – | 6.51 µM [rising, single point]
17 | CCOC(=O)N1CCN(C(=O)CCN2C(=O)/C(=C\c3cccc(OC)c3)SC2=S)CC1 | 7.69% | 5.17 µM [rising, single point] | –
18 | CCc1nnc(NC(=O)c2ccc(COc3ccccc3C)o2)s1 | -5.13% | 29.1 µM [rising, partial curve, poor fit] | –
19 | Cc1ccccc1NC(=O)CN1C(=O)NC(C)(c2ccc3c(c2)OCO3)C1=O (configuration not stated) | 6.71% | 0.366 µM [rising, partial curve, poor fit] | 0.164 µM [rising, full curve, poor fit]
20 | CCCCc1nc2n[nH]c(N)c2c2c1CSC(C)(C)C2 | 14.7% | – | 0.146 µM [rising, full curve, poor fit]

Row | Compound | cell number change | AC50 [1] | AC50 [2]
21 | COc1ccc(CNC(=O)c2c[nH]c3c(OC)cc(OC)cc3c2=O)cc1 | 4.99% | 18.4 µM [falling, single point] | –
22 | COc1ccc(-c2csc(NC(=O)CN3C(=O)NC4(CCCC4)C3=O)n2)c(OC)c1 | – | 23.1 µM [falling, partial curve, poor fit] | –
23 | Cc1ccccc1NC(=O)C(C)OC(=O)c1ccccc1C(=O)N(C)c1ccccc1 (configuration not stated) | 13.3% | 2.06 µM [rising, partial curve] | –
24 | COc1cc(C2Nc3c(F)cccc3C3C=CCC32)cc(Br)c1OC (configuration not stated) | -50.7% | – | –
25 | O=C(O)c1ccc(N2CCc3ccccc32)c([N+](=O)[O-])c1 | -0.758% | 0.517 µM [falling, full curve, poor fit] | –
26 | N#Cc1ccccc1S(=O)(=O)N1CCN(C(=O)c2ccc(-n3cncn3)c([N+](=O)[O-])c2)CC1 | 50% | – | 29.1 µM [rising, single point]
27 | Cn1c(=O)n(Cc2ccccc2Cl)c(=O)c2c1[nH]c(=S)n2C | -22% | – | –
28 | Fc1ccc(OCc2nc(-c3ccc(Br)o3)no2)c(F)c1 | 6.17% | – | –
29 | O=C1COc2ccc(S(=O)(=O)N3CCCCCC3)cc2N1 | -13.9% | – | –
30 | O=C(Nc1cc(Cl)cc(Cl)c1)N1CCCN(Cc2ccccc2)CC1 | -14.4% | – | –
31 | Cc1nc(NC2=NCN(C3CCCCC3C)CN2)nc2ccccc12 (configuration not stated) | -78.8% | 29.1 µM [falling, single point] | 32.6 µM [falling, partial curve]
32 | Cc1ccc(/C=N\NC(=O)Cn2nnc3ccccc32)o1 | 47.7% | – | 11.6 µM [rising, partial curve, poor fit]
33 | Cc1nc(N/N=C\c2ccc3c(c2)OCO3)sc1C | -28.2% | 29.1 µM [falling, single point] | –
34 | CCc1nc2n[nH]c(N)c2c2c1CCCC2 | -40% | 29.1 µM [falling, single point] | 0.731 µM [falling, full curve]
35 | COc1ccc(NC(=O)C2CCC(C(C)(C)C)CC2)cc1S(=O)(=O)N1CCCCC1 (configuration not stated) | 12.6% | 0.366 µM [falling, full curve] | –
36 | CC1=NN(C(N)=S)C(=O)C1N=Nc1ccc(O)cc1 (configuration not stated) | -31.7% | 11.6 µM [falling, partial curve] | 18.4 µM [falling, single point]
37 | COc1ccc(-n2c(C)c(C)c3c(NCCCO)ncnc32)cc1 | -0.709% | 3.66 µM [rising, full curve, poor fit] | –
38 | O=C(CNC(=S)N(Cc1ccccc1)Cc1ccccc1F)NCCc1ccccc1 | 75.3% | – | 20.6 µM [rising, single point]
39 | CCOC(=O)c1ccc(NC(=O)c2cc(=O)[nH]c3ccccc23)cc1 | -32.7% | – | –
40 | C#CCOC(=O)C[N+](C)(C)CC#Cc1ccccc1 | -68.9% | 20.6 µM [falling, partial curve, poor fit] | 18.4 µM [falling, partial curve, poor fit]

A few values from the list.
cell number change, Cc1nc(N/N=C\c2ccc3c(c2)OCO3)sc1C reads -28.2%
AC50 [1], C#CCOC(=O)C[N+](C)(C)CC#Cc1ccccc1 reads 20.6 µM [falling, partial curve, poor fit]
AC50 [1], COc1ccc(NC(=O)C2CCC(C(C)(C)C)CC2)cc1S(=O)(=O)N1CCCCC1 (configuration not stated) reads 0.366 µM [falling, full curve]

The list goes on.

Row | Compound | cell number change | AC50 [1] | AC50 [2]
41 | CC(C)(Oc1ccc(Cl)cc1)C(=O)Nc1ccc2oc(-c3ccncc3)nc2c1 | 5.62% | 1.84 µM [rising, partial curve] | –
42 | NC(=O)CC(NC(=O)Cc1cccc2ccccc12)c1ccc(NC2CC3CCC2C3)c([N+](=O)[O-])c1 (configuration not stated) | -21.4% | – | –
43 | O=C(c1cc2ccccc2oc1=O)N(Cc1ccc(F)cc1)C1CCS(=O)(=O)C1 (configuration not stated) | -7.35% | – | –
44 | Cn1c2c(c(=O)n(C)c1=O)C(c1ccc(Br)cc1)C(C#N)=C(N)N2 (configuration not stated) | 29.1% | 29.1 µM [rising, single point] | –
45 | COC(=O)CCCSc1nccn1-c1ccccc1 | -13.1% | 1.16 µM [rising, single point] | 1.16 µM [rising, single point]
46 | COc1cc2[nH]c(=O)n(CCCCCC(=O)NCCCN3CCOCC3)c(=O)c2cc1OC | 3.28% | 6.51 µM [falling, single point] | –
47 | Cc1c(NC(=O)CN2C(=O)NC3(CCC(C)CC3)C2=O)c(=O)n(-c2ccccc2)n1C (configuration not stated) | -48% | 18.4 µM [falling, single point] | 9.2 µM [falling, partial curve, poor fit]
48 | Cc1ccc(C)c(NS(=O)(=O)c2ccc3[nH]c(=O)oc3c2)c1 | 81.5% | 29.1 µM [rising, partial curve] | 16.4 µM [rising, single point]
49 | COc1ccc(-c2nnc(SCC(=O)N3CCCC3)o2)c(OC)c1 | -20.5% | – | –
50 | CCCc1cc(=O)oc2cc(C)cc(OCC(=O)NCCN3CCOCC3)c12 | -7.16% | 2.91 µM [rising, single point] | –
51 | CSc1ccc(CNCc2ccc3c(c2)OCO3)cc1 | 19.4% | – | –
52 | Cc1cccc2sc(NC(=O)CSc3cn[nH]n3)nc12 | -0.952% | – | –
53 | CCN(CC)C(=O)c1oc2ccc(S(=O)(=O)N3CC(C)CC(C)C3)cc2c1C (configuration not stated) | – | 0.82 µM [falling, full curve] | –
54 | Cc1nc2ccccc2c(=O)n1/N=C/c1ccc([N+](=O)[O-])o1 | -57.9% | 29.1 µM [falling, single point] | 29.1 µM [falling, single point]
55 | Cc1ccc(-n2nnnc2SCC(=O)c2cc(C)n(-c3cc(C)on3)c2C)c(C)c1 | -42.4% | 20.6 µM [falling, partial curve, poor fit] | 13 µM [falling, partial curve, poor fit]
56 | Cc1cccc(C)c1NC(=O)CN(C)C(=O)CC1OC(=O)c2ccccc21 (configuration not stated) | – | – | 1.46 µM [rising, partial curve]
57 | COC(=O)c1ccc(N/C=C/C(=O)c2ccc(OC)c(OC)c2)cc1 | 24.1% | 0.184 µM [rising, full curve] | –
58 | CCOC(=O)c1cnc(-n2nc(C)cc2C)nc1NNc1nc(C)cc(C)n1 | -44.3% | 29.1 µM [falling, single point] | 29.1 µM [falling, single point]
59 | O=C(CN1CCCCC1)NNc1nc(-c2ccccc2)c2cc(Cl)ccc2n1 | 131% | 23.1 µM [rising, single point] | 29.1 µM [rising, partial curve]
